# Test results as given in PubChem BioAssay (NCATS).
# The chains behind the UniProt entries cited, without tags or fusion partners. Where a name states a change or a piece, a line headed by the entry shows the natural chain unless it says otherwise.
# UniProt P08684, whole entry, looked up: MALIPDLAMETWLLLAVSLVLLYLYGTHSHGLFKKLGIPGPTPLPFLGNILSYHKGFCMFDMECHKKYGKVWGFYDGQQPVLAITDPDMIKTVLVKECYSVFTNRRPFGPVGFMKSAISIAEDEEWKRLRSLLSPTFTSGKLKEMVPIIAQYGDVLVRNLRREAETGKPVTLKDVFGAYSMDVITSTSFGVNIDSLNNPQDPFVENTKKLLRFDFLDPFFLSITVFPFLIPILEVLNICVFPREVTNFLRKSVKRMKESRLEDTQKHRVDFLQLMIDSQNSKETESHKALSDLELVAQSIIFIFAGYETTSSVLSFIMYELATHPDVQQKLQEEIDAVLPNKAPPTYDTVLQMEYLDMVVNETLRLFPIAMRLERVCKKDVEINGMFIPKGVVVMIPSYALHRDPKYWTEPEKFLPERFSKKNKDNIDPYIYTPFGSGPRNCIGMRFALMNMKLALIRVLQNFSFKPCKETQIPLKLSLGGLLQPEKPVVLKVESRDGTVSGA
# UniProt O15297: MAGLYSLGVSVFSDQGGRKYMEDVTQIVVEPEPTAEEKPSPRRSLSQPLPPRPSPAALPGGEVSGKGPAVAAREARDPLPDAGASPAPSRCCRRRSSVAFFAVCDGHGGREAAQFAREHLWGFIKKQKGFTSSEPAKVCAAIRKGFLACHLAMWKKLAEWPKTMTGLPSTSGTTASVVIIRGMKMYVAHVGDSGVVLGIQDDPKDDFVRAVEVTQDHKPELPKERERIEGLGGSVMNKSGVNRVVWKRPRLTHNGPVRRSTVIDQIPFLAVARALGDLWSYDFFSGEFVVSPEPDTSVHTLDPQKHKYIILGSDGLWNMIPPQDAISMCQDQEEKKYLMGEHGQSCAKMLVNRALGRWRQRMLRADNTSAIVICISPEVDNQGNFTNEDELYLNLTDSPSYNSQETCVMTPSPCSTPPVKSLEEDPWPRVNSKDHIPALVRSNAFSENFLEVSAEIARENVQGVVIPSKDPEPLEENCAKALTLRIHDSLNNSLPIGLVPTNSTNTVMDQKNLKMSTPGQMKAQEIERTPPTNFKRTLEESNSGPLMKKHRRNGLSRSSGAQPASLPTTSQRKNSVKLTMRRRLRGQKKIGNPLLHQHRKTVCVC
# UniProt P07378: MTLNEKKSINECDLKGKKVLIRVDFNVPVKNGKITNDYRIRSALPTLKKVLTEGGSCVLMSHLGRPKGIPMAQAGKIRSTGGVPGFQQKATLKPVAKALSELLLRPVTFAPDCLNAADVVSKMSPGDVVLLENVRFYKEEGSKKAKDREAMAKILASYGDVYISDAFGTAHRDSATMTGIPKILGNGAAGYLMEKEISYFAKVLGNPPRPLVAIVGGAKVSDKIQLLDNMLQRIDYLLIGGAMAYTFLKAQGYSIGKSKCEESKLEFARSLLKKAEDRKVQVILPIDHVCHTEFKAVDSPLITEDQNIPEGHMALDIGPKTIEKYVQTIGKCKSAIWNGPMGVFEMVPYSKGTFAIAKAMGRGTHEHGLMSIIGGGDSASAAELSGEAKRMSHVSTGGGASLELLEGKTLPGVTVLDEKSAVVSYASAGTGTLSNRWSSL
# UniProt P21728, whole entry, looked up: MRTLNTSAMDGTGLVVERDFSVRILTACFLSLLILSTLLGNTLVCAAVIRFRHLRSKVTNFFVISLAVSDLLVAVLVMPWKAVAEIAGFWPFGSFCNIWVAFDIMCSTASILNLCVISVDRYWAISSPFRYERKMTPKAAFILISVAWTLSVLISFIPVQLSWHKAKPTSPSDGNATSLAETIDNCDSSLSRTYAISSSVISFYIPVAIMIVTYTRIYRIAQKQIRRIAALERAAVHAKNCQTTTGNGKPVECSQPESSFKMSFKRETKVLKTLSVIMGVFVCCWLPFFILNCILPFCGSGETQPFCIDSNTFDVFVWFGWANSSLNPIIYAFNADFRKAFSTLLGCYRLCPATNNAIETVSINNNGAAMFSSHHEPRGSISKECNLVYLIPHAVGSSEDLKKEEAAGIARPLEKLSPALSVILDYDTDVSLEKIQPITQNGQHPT
# This list was built around the results that the source calls inconclusive (neither active nor inactive); the mix of calls is not that of the screen. For some of these results: Where the call is inconclusive, the potency comes from a doubtful curve fit. Activity calls are given as the source filed them. Calls follow the shape of the dose curve; as a rule, active = well fitted curve in the direction sought with a large enough effect; inconclusive = small, poorly fitted or top-dose-only effect, or another doubt; inactive = no such curve, though single readings can be large; an effect the other way counts as inactive or inconclusive.
# How the values were obtained:
# [1] = KB-8-5-11 Cancer Cell Toxicity qHTS against the NCATS CANVASS Library (AID 1347364); conditions: KB-8-5-11 MDR cells viability, CellTiter-Glo, 72 h; also: potency is read from the fitted curve at half-maximal effect; nearly all actives have a fitted effect of over 75% in size
# How it was run: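 Luminescent ATP signal (CellTiter-Glo, 10 min at room temperature) measured cell survival of KB-8-5-11 after 72 hr compound treatment. For confirmation, the cells were also grown with 1uM tariquidar.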
# [2] = KB-3-1 Cancer Cell Toxicity qHTS against the NCATS CANVASS Library (AID 1347366); conditions: KB-3-1 viability, CellTiter-Glo luminescence, 72 h; series mostly up to 91.4 µM; also: potency is read from the fitted curve at half-maximal effect; nearly all actives have a fitted effect of over 75% in size
# How it was run: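 CellTiter-Glo luminescence measured viability after 72 h at 37C. KB-3-1 cells were seeded at 500 per well in DMEM/10% FBS.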
# [3] = qHTS for ATAD5 Antagonist screened against the NCATS CANVASS Library (AID 1347370); conditions: HEK293T-ATAD5-luc, 5-FUrd stimulated, luminescence, 16 h; series mostly up to 91.4 µM; also: nearly all actives have a fitted effect of over 65% in size; also: potency is read from the fitted curve at half-maximal effect
# How it was run: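 HEK293T-ATAD5 luc reporter, 2000 cells/well; 5hr attach; cpd + 10 uM 5-FUrd; 16hr 37C, 5% CO2. Readouts: CellTiter-Fluor fluorescence (1hr), then Amplite luciferase luminescence (30min RT).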
# [4] = qHTS for Hypoxia signaling pathway (HIF-1) antagonists against the NCATS CANVASS Library (AID 1347374); conditions: HRE-bla ME-180 cells, HIF-1 beta-lactamase reporter, CoCl2; also: potency is read from the fitted curve at half-maximal effect; nearly all actives have a fitted effect of over 60% in size
# How it was run: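 Beta-lactamase reporter under HRE control in ME-180 cells; CoCl2 stimulus (60 uM solution as added), compounds 11-pt qHTS, 17 h 37C. CCF4 dye 2 h RT, 460/530 nm emission. CellTiter-Glo viability in same wells.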
# [5] = qHTS assay for small molecule disruptors of mitochondrial membrane potential screened against the NCATS CANVASS Library (AID 1347389); conditions: HepG2 mitochondrial membrane potential, m-MPI red/green ratio, 1.5 h; also: potency is read from the fitted curve at half-maximal effect; nearly all actives have a fitted effect of over 60% in size
# How it was run: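 Cells (HepG2) seeded the day before received compound or DMSO for 1 hr, then Mito-MPS dye for 30 min at 37C; emission at 590 nm over 535 nm gave the polarization signal.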
# [6] = molecular target: Cytochrome P450 3A4 (Homo sapiens) (UniProt P08684); test: qHTS Assay for Activators of Cytochrome P450 3A4 (AID 885); conditions: recombinant CYP3A4, Luciferin-PPXE luminescence, 60 min; series mostly up to 57.1 µM; also: potency is read from the fitted curve at half-maximal effect; nearly all actives have a fitted effect of over 65% in size
# How it was run: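 Human CYP3A4 dealkylates Luciferin-PPXE to luciferin, which luciferase detection converts to light. Substrate was at its KM (25uM), buffer 200mM KPO4, reaction 60 min at RT.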
# [7] = qHTS of pediatric cancer cell lines to identify multiple opportunities for drug repurposing: Primary screen for SJ-GBM2 cells (AID 1347091); conditions: SJ-GBM2 viability, CellTiter-Glo luminescence, 48 h; series mostly up to 46 µM; also: potency is read from the fitted curve at half-maximal effect
# How it was run: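 Viability measured as metabolically active cells via CellTiter-Glo luminescence following 48 hours of compound exposure, 11-point dilutions in confirmatory testing. 500-1,000 cells/well plated 5 hours before dosing; controls were DMSO and 2.3 µM bortezomib.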
# [8] = qHTS of pediatric cancer cell lines to identify multiple opportunities for drug repurposing: Primary screen for SK-N-MC cells (AID 1347093); conditions: SK-N-MC viability, CellTiter-Glo luminescence, 48 h; activity change, negative = cytotoxic: at 46 µM (top of the series); also: potency is read from the fitted curve at half-maximal effect
# How it was run: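 Metabolically active cells were quantified by ATP-dependent luminescence (CellTiter-Glo, 15 min at room temperature) following 48 h treatment. Cells had been plated at 500-1,000 per well and settled for 5 h beforehand.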
# [9] = qHTS of pediatric cancer cell lines to identify multiple opportunities for drug repurposing: Primary screen for Saos-2 cells (AID 1347097); conditions: Saos-2 viability, CellTiter-Glo ATP luminescence, 48 h; activity change, negative = cytotoxic: at 46 µM (top of the series); also: potency is read from the fitted curve at half-maximal effect; nearly all actives have a fitted effect of over 40% in size
# How it was run: (§1)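 Viability was measured as metabolically active cells after 48 hours of treatment, read by CellTiter-Glo luminescence. Compounds were tested at multiple final concentrations, giving concentration-response curves.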
# [10] = qHTS of pediatric cancer cell lines to identify multiple opportunities for drug repurposing: Primary screen for NB1643 cells (AID 1347099); conditions: NB1643 neuroblastoma viability, CellTiter-Glo luminescence, 48 h; activity change, negative = cytotoxic: at 46 µM (top of the series); also: potency is read from the fitted curve at half-maximal effect; nearly all actives have a fitted effect of over 50% in size
# How it was run: as §1
# [11] = qHTS of pediatric cancer cell lines to identify multiple opportunities for drug repurposing: Primary screen for RD cells (AID 1347104); conditions: RD rhabdomyosarcoma viability, CellTiter-Glo luminescence, 48 h; series mostly up to 46 µM; also: nearly all actives have a fitted effect of over 55% in size
# How it was run: as §1
# [12] = qHTS to identify inhibitors of the type 1 interferon - major histocompatibility complex class I in skeletal muscle: primary screen against the NCATS Mechanism Interrogation Plate v5.0 (MIPE) Libary (AID 1347411); conditions: iHSKM cells + IFN-b, HiBiT-tagged MHC-I luminescence, 24 h; series mostly up to 45.8 µM; also: nearly all actives have a fitted effect of over 65% in size
# How it was run: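 IFN-beta-driven (4 ng/ml) HLA-B-HiBit expression in CRISPR-tagged C25cl48 myoblasts; compounds 11-pt, 1:3, max 46 uM, 24 hr exposure; lytic NanoLuc complementation luminescence.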
# [13] = molecular target: Protein phosphatase 1D (Homo sapiens) (UniProt O15297); test: RapidFire Mass Spectrometry qHTS Assay for Modulators of WT P53-Induced Phosphatase 1 (WIP1) (AID 1347424); conditions: WIP1 dephosphorylation of phosphopeptide, RapidFire MS; series mostly up to 63 µM; also: potency is read from the fitted curve at half-maximal effect
# How it was run: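 RapidFire MS readout of dephosphorylated VEPPL-S-QETFS product, with 1 uM isotope-labelled peptide standard. Reaction: 10 nM WIP1, 2 uM phosphopeptide substrate, 5 min, room temperature, after 1 h compound preincubation; stopped with 0.5% formic acid.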
# [14] = Vero cells viability qHTS for Zika virus inhibitors (AID 1347167); conditions: cytotoxicity counter-screen (Zika); series mostly up to 45.9 µM; also: potency is read from the fitted curve at half-maximal effect
# How it was run: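 qHTS titration; 24-48 h compound exposure, 37 degrees C/5% CO2; DMEM, 4% FBS; CellTiter Glo ATP luminescence.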
# [15] = molecular target: Phosphoglycerate kinase, glycosomal (Trypanosoma brucei brucei) (UniProt P07378); test: qHTS Validation Assay to Find Inhibitors of Phosphoglycerate Kinase (AID 504547); conditions: enzymatic PGK inhibition, coupled luminescence read-out; series mostly up to 57.5 µM; also: potency is read from the fitted curve at half-maximal effect
# How it was run: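 Compounds are pinned into the substrate/PGK mixture, and GAPDH (100nM final) is added to start the reaction by producing 1,3-BPG. After 60 minutes at room temperature, Kinase-Glo Plus is added and luminescence is measured 10 minutes later.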
# ATS95 = test: qHTS profiling for inhibitors of Plasmodium falciparum proliferation (AID 504749); also: nearly all actives have a fitted effect of over 60% in size; also: potency is read from the fitted curve at half-maximal effect; conditions: P. falciparum in erythrocytes, SYBR Green DNA, 72 h; series mostly up to 28.7 µM
# How it was run: (§2)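 SYBR Green fluorescence (ex 485 nm, em 535 nm) reports parasite DNA after 72 h compound exposure of infected red cells at 0.3% parasitemia, 2.5% hematocrit; signal normalized to 0.29 uM artemisinin and vehicle wells.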
# ICS = test: as above; conditions: P. falciparum in erythrocytes, SYBR Green DNA, 72 h; series mostly up to 28.7 µM
# How it was run: as §2
# P93_24 = test: as above; conditions: P. falciparum in erythrocytes, SYBR Green DNA, 72 h; series mostly up to 28.7 µM
# How it was run: as §2
# Dd2 = test: as above; conditions: P. falciparum in erythrocytes, SYBR Green DNA, 72 h; series mostly up to 28.7 µM
# How it was run: as §2
# [16] = molecular target: D(1A) dopamine receptor (Homo sapiens) (UniProt P21728); test: HTS Assay for Allosteric Agonists of the Human D1 Dopamine Receptor: Primary Screen for Agonists (AID 488981); conditions: Inducible HEK293 T-REx D1 cells, calcium-flux fluorescence, 180 s kinetic; series mostly up to 41.8 µM; also: potency is read from the fitted curve at half-maximal effect
# How it was run: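 Tetracycline-induced HEK293 Trex D1 cells with forced coupling to calcium, loaded with no-wash calcium dye; kinetic fluorescence read 180 s after compound addition for agonism, then a further 180 s after an EC20 dopamine challenge for potentiation.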
structure (smiles),measurement,setting,value
O=c1cc(-c2ccccc2)oc2c(O)c(O)ccc12,Potency,[1],"inconclusive: 13.2 µM [cytotoxic, partial curve]"
same,Potency,[2],"inconclusive: 37.2 µM [cytotoxic, single point]"
same,Potency,[3],"inconclusive: 23.4 µM [inhibitor, single point]"
same,Potency,[4],"inconclusive: 29.8 µM [inhibitor, single point]"
same,Potency,[5],active: 18.6 µM
C=CC[C@H](N)C(=O)O,Potency,[6],"inconclusive: 39.8 µM [activator, single point]"
CC(=O)OCC(=O)[C@@]1(O)CC[C@H]2[C@@H]3CCC4=CC(=O)CC[C@]4(C)[C@H]3C(=O)C[C@@]21C,Potency,[7],inactive
same,Potency,[8],"inconclusive: 33.5 µM [cytotoxic, partial curve, poor fit]"
same,Potency,[9],"inconclusive: 47.3 µM [cytotoxic, partial curve, poor fit]"
same,Potency,[10],"inconclusive: 1 nM [cytotoxic, full curve, poor fit]"
same,Potency,[11],inactive
same,Potency,[12],inactive
same,Potency,[13],"inconclusive: 11.2 µM [inhibitor, partial curve, poor fit]"
O=C(NOCC1CC1)c1cc(Br)c(F)c(F)c1Nc1ccc(I)cc1Cl,Potency,[14],"inconclusive: 36.9 µM [cytotoxic, partial curve, poor fit]"
O=c1cc(O)cc(/C=C/c2ccc(O)c(O)c2)o1,Potency,[15],active: 1.69 µM
CN1C2CCC1CC(OC(=O)c1c[nH]c3ccccc13)C2 (stereo not given),Potency,ATS95,inactive
same,Potency,ICS,inactive
same,Potency,P93_24,inactive
CCCCCCCCCCCCCCC[C@H](O)[C@H](N)CO,Potency,ATS95,inactive
same,Potency,Dd2,"inconclusive: 17.8 µM [inhibitor, partial curve, poor fit]"
same,Potency,ICS,"inconclusive: 17.8 µM [inhibitor, single point]"
C[C@H](O)C(=O)C1=Nc2c(nc(N)[nH]c2=O)NC1,Potency,[16],"inconclusive: 31.6 µM [activator, single point]"
CCCn1c(=O)c2c(ncn2C)n(CCC)c1=O,Potency,[15],inactive
CC(C)NC[C@H](O)COc1ccc(CC(N)=O)cc1,Potency,Dd2,inactive
same,Potency,P93_24,"inconclusive: 3.55 µM [inhibitor, single point]"
C=CCN1CCc2c(cc(O)c(O)c2Br)[C@@H](c2ccccc2)C1,Potency,[14],inactive
O=C(O)Cc1c[nH]c2ccc(O)cc12,Potency,[3],inactive
CCCCCCCCCC(=O)NC(CN1CCOCC1)[C@H](O)c1ccccc1 (stereo not given in full),Potency,[16],"inconclusive: 22.4 µM [activator, single point]"
C=C(C)[C@@H]1CC[C@]2(C(=O)O)CC[C@]3(C)[C@H](CC[C@@H]4[C@@]5(C)CC[C@H](O)C(C)(C)[C@@H]5CC[C@]43C)[C@@H]12,Potency,[7],active: 18.7 µM
same,Potency,[8],"inconclusive: 6.62 µM [cytotoxic, partial curve]"
same,Potency,[1],"inconclusive: 20.9 µM [cytotoxic, partial curve]"
same,Potency,[2],"inconclusive: 37.2 µM [cytotoxic, partial curve, poor fit]"
same,Potency,[4],"inconclusive: 29.8 µM [inhibitor, single point]"
same,Potency,[5],active: 18.6 µM
same,Potency,[12],inactive
NC(N)=NC(N)=Nc1cccc(Cl)c1,Potency,[6],"inconclusive: 2 µM [activator, full curve]"
CCN1CCN(C(=O)N[C@@H](C(=O)N[C@@H]2C(=O)N3[C@@H]2SC(C)(C)[C@H]3C(=O)O)c2ccccc2)C(=O)C1=O,Potency,[11],inactive
same,Potency,[13],inactive
C[C@@H]1O[C@@H](O[C@H]2CC[C@@]3(C)[C@H](CC[C@@H]4[C@H]3C[C@@H](O)[C@]3(C)[C@@H](C5=CC(=O)OC5)CC[C@]43O)C2)C[C@H](O)[C@@H]1O[C@H]1C[C@H](O)[C@H](O[C@H]2C[C@H](O)[C@@H](O)[C@@H](C)O2)[C@H](C)O1 (stereo in doubt),Potency,[9],active: 0.679 µM
same,Potency,[10],active: 429 nM

# An excerpt taken from the entries so far:
structure (smiles),measurement,setting,value
CC(=O)OCC(=O)[C@@]1(O)CC[C@H]2[C@@H]3CCC4=CC(=O)CC[C@]4(C)[C@H]3C(=O)C[C@@]21C,Potency,[11],inactive
same,Potency,[12],inactive
